From ChEMBL document CHEMBL2177055 (J Med Chem, 2012)

Experiment: in vitro
Conditions: human, Caco-2

SMILES: CN1CCN(S(=O)(=O)c2ccc(-c3cnc(N)c(C(=O)Nc4cnccc4CN4CCCC4)n3)cc2)CC1
- Papp at 2 h, 10 µM: 2.3 ×10⁻⁶ cm/s
